Some entries share one result that the patent states for a list of compounds.
System: uninfected confluent cell cultures
Conditions: virus panel host cells, microscopic alteration of cell morphology

Row | SMILES | cytotoxicity, no significant up to [µM]
1 | Nc1ncnc2c1ncn2CCOCP(=O)(O)S (centres unmarked) [Compound 6, 9-[2-(thiophosphonomethoxy)ethyl]adenine] | > 200
2 | C[C@H](Cn1cnc2c(N)ncnc21)OCP(=O)(O)S (stereo partly drawn) [Compound 11, (R)-9-[2-(thiophosphonomethoxy)propyl]adenine] | > 200

From US8884011B2, “Nucleotide analogues as precursor molecules for antivirals” (Centre National de la Recherche Scientifique-CNRS, priority 2006, dated 2014)
